Record: PubChem BioAssay AID743454 (Peter MacCallum Cancer Centre, 2014)

- Aim: 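Search for knock-downs that restore vorinostat killing in resistant colon cancer cells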 (primary screen)
- System: human HCT116-VR colon cancer cells, selected for vorinostat resistance
- Reagents: siRNA pool against human genes, 40 nM siRNA pool
- Timing: vorinostat for 24 h, read-out about 72 h after transfection
- Treatment: vorinostat at 2.5 µM final
- Read-out: 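Cell viability by CellTiter-Fluor and caspase 3/7 activity by luminescence, each scaled to mock wells per plate, duplicates averaged, then robust z-scored over all plates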
- Scale: viability robust z-score: higher = more viable cells than screen typical; caspase robust z-score: higher = more caspase 3/7 activity than screen typical
- Hit rule: 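Hits are knock-downs in viability class RV1/RV2 or caspase class CA1/CA2, excluding ones that killed cells in the no-drug cell-count arm; hits then retested with single siRNAs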
Here is a random part of about 18,000 reagents. 450 of all reagents (2.5%) were called active. 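Single biological run; no consistent viability z cut-off exists, so the class columns, not z-scores, define the calls.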

no.	gene knocked down	viability hit class	caspase hit class	viability robust z-score	caspase robust z-score	call
1	GUCY1B1 (guanylate cyclase 1 soluble subunit beta 1)	no change	no change	-4.43	1.17	inactive
2	TRIM11 (tripartite motif containing 11)	no change	no change	0.08	-0.18	inactive
3	NAB1 (NGFI-A binding protein 1)	no change	no change	-1.27	2.86	inactive
4	RAB14 (RAB14, member RAS oncogene family)	no change	no change	0.57	-0.23	inactive
5	HTATSF1 (HIV-1 Tat specific factor 1)	no change	no change	-0.58	1.8	inactive
6	ALKBH2 (alkB homolog 2, alpha-ketoglutarate dependent dioxygenase)	no change	no change	-0.83	-0.4	inactive
7	DYNLT1 (dynein light chain Tctex-type 1)	no change	no change	-0.03	1.14	inactive
8	BAIAP3 (BAI1 associated protein 3)	no change	no change	-0.46	1.5	inactive
9	CMTM8 (CKLF like MARVEL transmembrane domain containing 8)	no change	no change	0.54	-0.37	inactive
10	EGR4 (early growth response 4)	no change	no change	0.6	0.56	inactive
11	SOCS2 (suppressor of cytokine signaling 2)	no change	no change	-0.88	-0.27	inactive
12	GABRA1 (gamma-aminobutyric acid type A receptor subunit alpha1)	no change	no change	-0.69	1.59	inactive
13	STX18 (syntaxin 18)	no change	no change	0.24	-0.46	inactive
14	GRK1 (G protein-coupled receptor kinase 1)	no change	no change	0.21	-0.38	inactive
15	SLC12A1	no change	no change	1.17	0.56	inactive
16	NPBWR1 (neuropeptides B and W receptor 1)	no change	no change	-1.04	3.72	inactive
17	PPP2R5A (protein phosphatase 2 regulatory subunit B'alpha)	no change	no change	0.66	-0.82	inactive
18	IFNA14 (interferon alpha 14)	no change	no change	-0.04	0.35	inactive

The list goes on, starting with the last 5 of the part before.
no.	gene knocked down	viability hit class	caspase hit class	viability robust z-score	caspase robust z-score	call
14	GRK1 (G protein-coupled receptor kinase 1)	no change	no change	0.21	-0.38	inactive
15	SLC12A1	no change	no change	1.17	0.56	inactive
16	NPBWR1 (neuropeptides B and W receptor 1)	no change	no change	-1.04	3.72	inactive
17	PPP2R5A (protein phosphatase 2 regulatory subunit B'alpha)	no change	no change	0.66	-0.82	inactive
18	IFNA14 (interferon alpha 14)	no change	no change	-0.04	0.35	inactive
19	FAM177A1 (family with sequence similarity 177 member A1)	no change	no change	-2.21	-0.26	inactive
20	ASPDH (aspartate dehydrogenase domain containing)	no change	no change	-0.23	3.76	inactive
21	COL8A1 (collagen type VIII alpha 1 chain)	no change	no change	0.82	0.19	inactive
22	PGAP4 (post-GPI attachment to proteins GalNAc transferase 4)	no change	no change	-0.78	-0.18	inactive
23	PPP3CA (protein phosphatase 3 catalytic subunit alpha)	no change	no change	-0.74	-1.31	inactive
24	SLC25A13	no change	no change	0.49	-0.03	inactive
25	TEX11 (testis expressed 11)	no change	no change	-0.5	-0.62	inactive
26	EID1 (EP300 interacting inhibitor of differentiation 1)	no change	no change	-0.03	-0.03	inactive
27	TSPAN32 (tetraspanin 32)	no change	no change	0.13	-1.55	inactive
28	SCAPER (S-phase cyclin A associated protein in the ER)	no change	no change	1.33	-0.77	inactive
29	GATA4 (GATA binding protein 4)	no change	no change	1.63	0.68	inactive
30	BHLHA15 (basic helix-loop-helix family member a15)	no change	no change	0.08	0.55	inactive
31	IGSF9 (immunoglobulin superfamily member 9)	no change	no change	-0.88	-0.46	inactive
32	MRPS18C (mitochondrial ribosomal protein S18C)	no change	no change	-0.1	4.27	inactive
33	CD302 (CD302 molecule)	no change	no change	-1.73	-1.43	inactive
34	BTLA (B and T lymphocyte associated)	no change	no change	0.95	1.21	inactive
35	OR4K13 (olfactory receptor family 4 subfamily K member 13)	no change	no change	1.34	0.15	inactive
36	BCAT2 (branched chain amino acid transaminase 2)	no change	no change	0.29	-0.97	inactive
37	NOCT (nocturnin)	no change	no change	-1.49	-1.6	inactive
38	TMEM17 (transmembrane protein 17)	no change	no change	0.18	1.02	inactive
39	SYAP1 (synapse associated protein 1)	no change	no change	2.55	0.12	inactive
